Data as given in PubChem BioAssay AID504804 (Drosophila RNAi Screening Center, 2011)
Aim: 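dsRNAs that improve Kc cell survival under doxorubicin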 (primary screen). System: Drosophila Kc cells. Reagents: long dsRNA against Drosophila genes, 0.5 µg dsRNA per well. Timing: 96 h (48 h knock-down, then 48 h drug). Treatment: doxorubicin 5 µg/ml for 48 h, added 48 h after dsRNA. Detection: 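Luminescent ATP counts per replicate, not normalised, reflecting viable cells after 48 h dsRNA knock-down followed by 48 h of 5 µg/ml doxorubicin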. Reading the numbers: raw ATP luminescence: higher = more viable cells, protection from doxorubicin. Call rule: 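z-score of 2 or more over plate mean in both duplicates, retained only when retests and separate dsRNAs confirm the protection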.
The screen tested about 19,000 reagents; shown is an unselected part of those that have a named target and a result. In the full data, 47 (0.25%) were called active. 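Signals are raw, not normalised; exact z-scores behind calls not deposited; actives needed confirmation, so some wells reaching 2 SD are inactive.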 Names joined by + are all predicted targets of the reagent.

CG9628 (GeneID 39593) [DRSC11082] scored raw ATP luminescence, replicate 1 = 17153; raw ATP luminescence, replicate 2 = 20557; inactive.
Septin1 (GeneID 33114) [DRSC20573] showed raw ATP luminescence, replicate 1 = 2.25e5; raw ATP luminescence, replicate 2 = 2.71e5; inactive.
Against Snap25 (GeneID 3355084) [DRSC21228], the entry reads raw ATP luminescence, replicate 1 = 3.94e5; raw ATP luminescence, replicate 2 = 2.83e5; inactive.
For Snap25 (GeneID 3355084) [DRSC21236], the values are raw ATP luminescence, replicate 1 = 2.01e5; raw ATP luminescence, replicate 2 = 2.73e5; inactive.
Silencing of CG18870 (GeneID 59218) [DRSC04313] came out at: raw ATP luminescence, replicate 1 = 64850; raw ATP luminescence, replicate 2 = 62707; inactive.
PGAP5 (GeneID 34116) [DRSC03089] showed raw ATP luminescence, replicate 1 = 51103; raw ATP luminescence, replicate 2 = 65527; inactive.
Against Gr10a (GeneID 117501) [DRSC18897], the values are raw ATP luminescence, replicate 1 = 2.82e5; raw ATP luminescence, replicate 2 = 3.06e5; inactive.
Knock-down of CG7968 (GeneID 34802) [DRSC01903] gave: raw ATP luminescence, replicate 1 = 81210; raw ATP luminescence, replicate 2 = 81290; inactive.
For CG42518 + MED9 [DRSC06917] the deposit lists raw ATP luminescence, replicate 1 = 49763; raw ATP luminescence, replicate 2 = 64407; inactive.
For frj (GeneID 33900) [DRSC03250], the entry reads raw ATP luminescence, replicate 1 = 83650; raw ATP luminescence, replicate 2 = 74923; inactive.
Silencing of CG8260 (GeneID 32521) [DRSC20098] resulted in: raw ATP luminescence, replicate 1 = 3.02e5; raw ATP luminescence, replicate 2 = 2.88e5; inactive.
For eIF4E6 (GeneID 43422) [DRSC14853] the deposit lists raw ATP luminescence, replicate 1 = 55170; raw ATP luminescence, replicate 2 = 59340; inactive.

A run of entries taken from the entries so far, for reference:
Snap25 (GeneID 3355084) [DRSC21236] — raw ATP luminescence, replicate 1 = 2.01e5; raw ATP luminescence, replicate 2 = 2.73e5; Outcome = inactive
CG18870 (GeneID 59218) [DRSC04313] — raw ATP luminescence, replicate 1 = 64850; raw ATP luminescence, replicate 2 = 62707; Outcome = inactive
